Source: patent US8299238B2, “Steroidogenesis modified cells and methods for screening for endocrine disrupting chemicals” (University of Saskatchewan, priority 2009, dated 2012)
“Also recorded” adds a separate entry of the source.

System: H295R/CYP17-KD cells
Assay: Steroid production of CYP17A-KD H295R cells
Assay type: cell-based, human
Conditions: FIG. 5

SMILES | Production in CYP17A knockdown H295R compared to control
C[C@]12CC[C@H]3[C@@H](CCC4=CC(=O)CC[C@@]43C)[C@@H]1CC[C@@H]2C(=O)CO [21a Hydroxyprogesterone] | increased production; also recorded: significantly enhanced
C[C@]12CCC(=O)C=C1CC[C@@H]1[C@@H]2CC[C@]2(C)C(=O)CC[C@@H]12 [Androstenedione] | less production; also recorded: significantly reduced
C[C@]12CC[C@H]3[C@@H](CCC4=CC(=O)CC[C@@]43C)[C@@H]1CC[C@@H]2O [Testosterone (T), Testosterone] | less production
